Measured values published in publication PMC7819943, “Rice protein-binding microarrays: a tool to detect cis-acting elements near promoter regions in rice”.
Some of the results follow.

The chains behind the UniProt entries cited, without tags or fusion partners.
UniProt Q0JBA9, entry or part of it: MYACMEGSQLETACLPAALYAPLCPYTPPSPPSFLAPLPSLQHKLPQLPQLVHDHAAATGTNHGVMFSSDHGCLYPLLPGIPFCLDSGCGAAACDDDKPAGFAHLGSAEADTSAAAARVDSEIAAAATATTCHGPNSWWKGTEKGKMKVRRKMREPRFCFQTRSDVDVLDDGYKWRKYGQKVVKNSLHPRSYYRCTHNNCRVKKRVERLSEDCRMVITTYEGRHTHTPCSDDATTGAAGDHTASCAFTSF

biological target: OsWRKY34 (Oryza sativa, UniProt Q0JBA9 1-250); assay: protein-binding microarray (RPBM); PBS, 2% BSA, 51.3 ng/ul salmon testes DNA, 50 uM zinc acetate, 200 nM TF, 25 C, 1 h; high values mean tight binding; conditions: protein: recombinant; tags: N-terminal polyhistidine and DsRed monomer fusion (pET32a); label: CyDye5-dUTP incorporated in the synthesized complementary strand; 3' TTTTT single-stranded linker to array surface; dsDNA, one strand shown
Method in brief: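 A custom Agilent array was converted to double-stranded form by primer extension with Cy5-dUTP and blocked with 2% BSA. Protein at 200 nM in PBS with 2% BSA, salmon testes DNA and 50 µM zinc acetate was applied for 1 h at 25 °C, followed by washing. The proteins were polyhistidine–DsRed N-terminal fusions of transcription factors, expressed in E. coli BL21-CodonPlus and Ni–NTA-purified. The binding signal is per-feature fluorescence intensity (arbitrary units) from an Axon 4000B scanner.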

Row | Sequence | binding signal
1 | CGTATGACTAGTGCTTGTTTATTTTATTTTTTTTCACACGCGGAGTCACCTAGTGCAG | 9830 fluorescence intensity (a.u.)
2 | TTTCTTAGAACTCATATTTGTCGATGGCATTTTTTGAATTCGGAGTCACCTAGTGCAG | 8050 fluorescence intensity (a.u.)
3 | ACCCTGAGCCGTTCACGTTTCCCATCCCATTCTCATCATCCGGAGTCACCTAGTGCAG | 9720 fluorescence intensity (a.u.)
4 | CACGCTGTCCGGTCTCTCTTTCTATCTTGTGTTGACTCTGCGGAGTCACCTAGTGCAG | 14900 fluorescence intensity (a.u.)
5 | GCAACACTAGACTTCCTATTTTCGGATGATCGGATCACCTCGGAGTCACCTAGTGCAG | 8120 fluorescence intensity (a.u.)
6 | TTCAAATTGTTGCTGCTCTGTGCTAGCCTTTTCATATTGACGGAGTCACCTAGTGCAG | 9110 fluorescence intensity (a.u.)
7 | CGTCGGCGGCGGCATCGCCGGTTGGCTGGGGTTGGAGAAGCGGAGTCACCTAGTGCAG | 9830 fluorescence intensity (a.u.)
8 | CTATGTTCATCCTCGTGTCATATTGTGTTCATCTTCATACCGGAGTCACCTAGTGCAG | 11600 fluorescence intensity (a.u.)
9 | ATATCTTACTTTACAGTATACAACATCTGCTTGCAACATGCGGAGTCACCTAGTGCAG | 8090 fluorescence intensity (a.u.)
10 | CGTCTCCTGGTGTCTGGAATTGGGCGGCGGCGGCGGGATGCGGAGTCACCTAGTGCAG | 11800 fluorescence intensity (a.u.)
11 | GTGGTCGTCGCTGATAGCGAGGTGGGTAGGGTTAATTTTGCGGAGTCACCTAGTGCAG | 11000 fluorescence intensity (a.u.)
12 | GATCGAGTCATACACATTTGACCAACCAAAGCCTTAGACTCGGAGTCACCTAGTGCAG | 9780 fluorescence intensity (a.u.)
13 | TTAACATATTTAGTGCTACTCTTTTCACTTTATTTAACTACGGAGTCACCTAGTGCAG | 9470 fluorescence intensity (a.u.)
14 | TAGTATTTCTCTGATCTATTACTTCATGATCGGCTACATCCGGAGTCACCTAGTGCAG | 8060 fluorescence intensity (a.u.)
15 | CGTGGGTAATTTGGTTCCTCTTCTTTTTTTGGCTTCCTTTCGGAGTCACCTAGTGCAG | 8440 fluorescence intensity (a.u.)
16 | TCAATGTGGTTGGGTGTGGTACTAGCTATAGCTGCATCCACGGAGTCACCTAGTGCAG | 8560 fluorescence intensity (a.u.)
17 | AGGAGGTGGTGGGTGGTGGTGGCTGCGGCTTGGCGCGATGCGGAGTCACCTAGTGCAG | 9400 fluorescence intensity (a.u.)
18 | CCCACCACACCAAGATGCCACCTTTTTTTCCCTTTTCTTTCGGAGTCACCTAGTGCAG | 10400 fluorescence intensity (a.u.)
19 | GTTTTACATTTGTCCTAAATCAAACATATCTATCTTTGACCGGAGTCACCTAGTGCAG | 8180 fluorescence intensity (a.u.)
20 | CGGTCATTAATCCCACTCATTTCCATGGTCATAAGATACGCGGAGTCACCTAGTGCAG | 9410 fluorescence intensity (a.u.)
21 | CCGCCTCGACGACTTCTCGACCGACACCATCCTCGAGCTCCGGAGTCACCTAGTGCAG | 14600 fluorescence intensity (a.u.)

An excerpt from the list above, for reference:
Row | Sequence | binding signal
2 | TTTCTTAGAACTCATATTTGTCGATGGCATTTTTTGAATTCGGAGTCACCTAGTGCAG | 8050 fluorescence intensity (a.u.)
3 | ACCCTGAGCCGTTCACGTTTCCCATCCCATTCTCATCATCCGGAGTCACCTAGTGCAG | 9720 fluorescence intensity (a.u.)

(further entries)

Row | Sequence | binding signal
22 | CTGGTTGGTAGGTACTTGCTTGATTAGATTGGGTTTGGTTCGGAGTCACCTAGTGCAG | 11500 fluorescence intensity (a.u.)
23 | CCGCACGCCCACACCGCATCCGCATCTCCCGATTCCTCGTCGGAGTCACCTAGTGCAG | 8140 fluorescence intensity (a.u.)
24 | ACTTCATTTCCCACTCCTAAGTCCTAACCCTGATACTCGCCGGAGTCACCTAGTGCAG | 8520 fluorescence intensity (a.u.)
25 | CTGACCCTTGTTTAAATTTCGTACTTGGACAATTGACATTCGGAGTCACCTAGTGCAG | 8420 fluorescence intensity (a.u.)
26 | ATACGCCTTTTAAAATATCGTCATTGAGCTTAACCTTTCTCGGAGTCACCTAGTGCAG | 10300 fluorescence intensity (a.u.)
27 | TGCCATCTGTACACCTTTTTTTTTTCGAACAACTGACTTTCGGAGTCACCTAGTGCAG | 8820 fluorescence intensity (a.u.)
28 | CTCGCACGGTGGCATCGCCAAGCTTTGACTTATCTCCTAGCGGAGTCACCTAGTGCAG | 8130 fluorescence intensity (a.u.)
29 | ATAAAATCTTGCTGTCCTGGCTTTTTTTTTTCTTTCATTTCGGAGTCACCTAGTGCAG | 8840 fluorescence intensity (a.u.)
30 | CCGCCTGCCGCCGTCCGTCCGCCAACCGCATGCCGTCCCCCGGAGTCACCTAGTGCAG | 8950 fluorescence intensity (a.u.)
31 | TTCCCGACCGTACCGATACCGTTTCCGCAAAACTAATATACGGAGTCACCTAGTGCAG | 9080 fluorescence intensity (a.u.)
32 | CATTTCTCTTTCCCATTTGCCGAACACTACCTAAAATCTTCGGAGTCACCTAGTGCAG | 8760 fluorescence intensity (a.u.)
33 | AGGAAGCCTTTTGCCGTCGTGTTCTTCCATCCTCTGCGGCCGGAGTCACCTAGTGCAG | 8660 fluorescence intensity (a.u.)
34 | CCGCCGCCTTTCTCGAACCTCCGCCGCATTCTTGTCACCTCGGAGTCACCTAGTGCAG | 10300 fluorescence intensity (a.u.)
35 | CGTCGATGAAACCCTTTTTTCCTTTCTCAGTTTCTTTCCTCGGAGTCACCTAGTGCAG | 8350 fluorescence intensity (a.u.)
36 | TATTATTTGCATTATCGCCTTAACCCCACATATATCCATACGGAGTCACCTAGTGCAG | 8690 fluorescence intensity (a.u.)
37 | GAACCGGCACCTTTAACCATGCTAGAGCCAGCACCTATAACGGAGTCACCTAGTGCAG | 8740 fluorescence intensity (a.u.)
38 | GGGCTGAATTTATTCTTGTTTTAGTGACATTCAATATGCTCGGAGTCACCTAGTGCAG | 8230 fluorescence intensity (a.u.)
39 | GTCTCTTCCTTTCATGTCTTGTATGTTATCCAAACAATATCGGAGTCACCTAGTGCAG | 10300 fluorescence intensity (a.u.)
40 | GGCTCCACCGTCTCCACCGCCACCACCGTCTCCACCACCACGGAGTCACCTAGTGCAG | 11100 fluorescence intensity (a.u.)
41 | TGGCAAAATCGGTTAGTCGTCCTTATTCTTATTCCACGGTCGGAGTCACCTAGTGCAG | 9990 fluorescence intensity (a.u.)
42 | CCACTACTTATTCAATCACAACCCTTCACTACTCATTTCTCGGAGTCACCTAGTGCAG | 10400 fluorescence intensity (a.u.)
